## Results from one PubChem assay

The results are deposited in PubChem (AID504749; NCATS, 2011).

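Malaria parasite (P. falciparum) lines kept in red blood cells; parasite DNA is measured by SYBR Green fluorescence after lysis, 72 h after compound addition. Each compound was titrated across a series from about 0.000037 to 29 µM. The number is the fitted AC50, the concentration giving a half-maximal change in signal; a lower value means higher potency, whether the curve shows a decrease or an increase. Calls follow the curve class and fit quality: every row here is inconclusive, covering signal-raising curves and weak, poorly fitted, partial or highest-dose-only inhibition curves.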

Values are in µM. All entries here are filed as inconclusive. These entries are mostly ones the record files as inconclusive; other results of the assay are not listed here. A potency from a partial, single-point or poor curve is only a rough figure. Some entries filed as inconclusive have a full curve.

- CCCc1nc2c(C)cc(-c3nc4ccccc4n3C)cc2n1Cc1ccc(-c2ccccc2C(=O)O)cc1 [CP215] : fitted potency 3.793 µM (inhibitor, single point)
- CCCc1nc2c(C)cc(-c3nc4ccccc4n3C)cc2n1Cc1ccc(-c2ccccc2C(=O)O)cc1 [JCK] : fitted potency 17.78 µM (inhibitor, single point)
- CCCc1nc2c(C)cc(-c3nc4ccccc4n3C)cc2n1Cc1ccc(-c2ccccc2C(=O)O)cc1 [AA1029] : fitted potency 1.585 µM (inhibitor, full curve)
- CCCc1nc2c(C)cc(-c3nc4ccccc4n3C)cc2n1Cc1ccc(-c2ccccc2C(=O)O)cc1 [CP291] : fitted potency 1.694 µM (inhibitor, partial curve, poor fit)
- CCCc1nc2c(C)cc(-c3nc4ccccc4n3C)cc2n1Cc1ccc(-c2ccccc2C(=O)O)cc1 [CP297] : fitted potency 2.686 µM (inhibitor, partial curve, poor fit)
- CCCc1nc2c(C)cc(-c3nc4ccccc4n3C)cc2n1Cc1ccc(-c2ccccc2C(=O)O)cc1 [TAB109] : fitted potency 1.585 µM (inhibitor, full curve)
- CCCc1nc2c(C)cc(-c3nc4ccccc4n3C)cc2n1Cc1ccc(-c2ccccc2C(=O)O)cc1 [CP269] : fitted potency 1.51 µM (inhibitor, partial curve)
- CCCc1nc2c(C)cc(-c3nc4ccccc4n3C)cc2n1Cc1ccc(-c2ccccc2C(=O)O)cc1 [P93_24] : fitted potency 1.585 µM (inhibitor, full curve)
- CCCc1nc2c(C)cc(-c3nc4ccccc4n3C)cc2n1Cc1ccc(-c2ccccc2C(=O)O)cc1 [ECU] : fitted potency 1.413 µM (inhibitor, full curve)
- CCCc1nc2c(C)cc(-c3nc4ccccc4n3C)cc2n1Cc1ccc(-c2ccccc2C(=O)O)cc1 [CP247] : fitted potency 0.8913 µM (inhibitor, full curve, poor fit)
- CCCc1nc2c(C)cc(-c3nc4ccccc4n3C)cc2n1Cc1ccc(-c2ccccc2C(=O)O)cc1 [DIV30] : fitted potency 0.5358 µM (inhibitor, full curve)
- CCCc1nc2c(C)cc(-c3nc4ccccc4n3C)cc2n1Cc1ccc(-c2ccccc2C(=O)O)cc1 [CP192] : fitted potency 0.0043 µM (inhibitor, full curve)
- CCCc1nc2c(C)cc(-c3nc4ccccc4n3C)cc2n1Cc1ccc(-c2ccccc2C(=O)O)cc1 [CP211] : fitted potency 1.901 µM (inhibitor, partial curve)
- CCCc1nc2c(C)cc(-c3nc4ccccc4n3C)cc2n1Cc1ccc(-c2ccccc2C(=O)O)cc1 [DFO2036] : fitted potency 2.512 µM (inhibitor, full curve, poor fit)
- O=C(N/N=C/c1ccccc1O)c1ccncc1 [CP315] : fitted potency 19.01 µM (inhibitor, single point)
- O=C(N/N=C/c1ccccc1O)c1ccncc1 [CP194] : fitted potency 19.01 µM (inhibitor, single point)
- O=C(N/N=C/c1ccccc1O)c1ccncc1 [PAD] : fitted potency 2.239 µM (inhibitor, partial curve)
- O=C(N/N=C/c1ccccc1O)c1ccncc1 [CP191] : fitted potency 11.22 µM (inhibitor, single point)
- O=C(N/N=C/c1ccccc1O)c1ccncc1 [HB3] : fitted potency 17.78 µM (inhibitor, single point)
- O=C(N/N=C/c1ccccc1O)c1ccncc1 [CP203] : fitted potency 19.01 µM (inhibitor, single point)
- O=C(N/N=C/c1ccccc1O)c1ccncc1 [CP269] : fitted potency 12 µM (inhibitor, single point)
- O=C(N/N=C/c1ccccc1O)c1ccncc1 [DIV17] : fitted potency 13.46 µM (inhibitor, single point)
- O=C(N/N=C/c1ccccc1O)c1ccncc1 [CP265] : fitted potency 11.22 µM (inhibitor, single point)
- O=C(N/N=C/c1ccccc1O)c1ccncc1 [CP215] : fitted potency 16.94 µM (inhibitor, single point)
- O=C(N/N=C/c1ccccc1O)c1ccncc1 [CP211] : fitted potency 19.01 µM (inhibitor, single point)
- O=C(N/N=C/c1ccccc1O)c1ccncc1 [CP305] : fitted potency 19.01 µM (inhibitor, single point)
- O=C(N/N=C/c1ccccc1O)c1ccncc1 [N140] : fitted potency 4.467 µM (inhibitor, partial curve)
- O=C(N/N=C/c1ccccc1O)c1ccncc1 [PC26] : fitted potency 10.69 µM (inhibitor, partial curve, poor fit)
- O=C(N/N=C/c1ccccc1O)c1ccncc1 [CP237] : fitted potency 8.912 µM (inhibitor, partial curve)

For reference, 3 entries once more:

- O=C(N/N=C/c1ccccc1O)c1ccncc1 [CP203] | fitted potency 19.01 µM (inhibitor, single point)
- CCCc1nc2c(C)cc(-c3nc4ccccc4n3C)cc2n1Cc1ccc(-c2ccccc2C(=O)O)cc1 [CP211] | fitted potency 1.901 µM (inhibitor, partial curve)
- CCCc1nc2c(C)cc(-c3nc4ccccc4n3C)cc2n1Cc1ccc(-c2ccccc2C(=O)O)cc1 [CP291] | fitted potency 1.694 µM (inhibitor, partial curve, poor fit)